No constants are given. Whether binding was seen depends on the method and setting. In cells and extracts the contact can be indirect. Some results given as binding are weak or reduced against the parent protein; the word gives no strength. Tags and fused reporters may be left off the sequences shown.

Amino acid sequences for entries named in this document (tags omitted).
UniProt Q9NR19: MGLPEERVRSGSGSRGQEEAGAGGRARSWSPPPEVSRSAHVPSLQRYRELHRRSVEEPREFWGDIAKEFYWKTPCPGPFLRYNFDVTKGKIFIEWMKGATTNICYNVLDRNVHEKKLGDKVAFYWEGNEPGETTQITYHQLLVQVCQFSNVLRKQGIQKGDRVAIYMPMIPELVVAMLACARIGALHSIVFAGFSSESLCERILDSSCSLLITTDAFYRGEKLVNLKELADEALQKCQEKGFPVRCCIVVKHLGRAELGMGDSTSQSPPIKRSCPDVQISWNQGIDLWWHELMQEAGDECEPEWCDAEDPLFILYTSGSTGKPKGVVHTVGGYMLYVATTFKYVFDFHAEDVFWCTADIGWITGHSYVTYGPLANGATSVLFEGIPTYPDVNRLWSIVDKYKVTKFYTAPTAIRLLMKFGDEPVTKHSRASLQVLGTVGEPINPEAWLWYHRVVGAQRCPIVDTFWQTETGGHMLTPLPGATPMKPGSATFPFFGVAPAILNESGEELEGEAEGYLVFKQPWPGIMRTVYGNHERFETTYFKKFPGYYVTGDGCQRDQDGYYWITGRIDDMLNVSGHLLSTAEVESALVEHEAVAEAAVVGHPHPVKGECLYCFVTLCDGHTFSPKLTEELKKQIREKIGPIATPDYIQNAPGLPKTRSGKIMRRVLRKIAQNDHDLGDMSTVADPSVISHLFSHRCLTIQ

In PMC12561415, “ACSS2/AATF Drives Soluble FasL‐Mediated CD8^+ T Cell Apoptosis in Pancreatic Neuroendocrine Tumors” (Advanced Science, 2025) one finds binding data, which are given here for 1 molecule.

The target in the assay is Flag-ACSS2 (acetyl-CoA synthetase 2) (human) (UniProt Q9NR19). As to the kind of experiment: co-IP; Flag-ACSS2 stable BON-1 cells lysed; immunoprecipitated with anti-Flag Ab or rabbit IgG control Ab; immunoblot with antibodies against AATF. A general note: In western blotting, separated proteins are transferred to a membrane and probed.

B1: Recombinant human AATF (natural protein, UniProt Q9NY61 1-560, looked up)
chain: MAGPQPLALQLEQLLNPRPSEADPEADPEEATAARVIDRFDEGEDGEGDFLVVGSIRKLASASLLDTDKRYCGKTTSRKAWNEDHWEQTLPGSSDEEISDEEGSGDEDSEGLGLEEYDEDDLGAAEEQECGDHRESKKSRSHSAKTPGFSVQSISDFEKFTKGMDDLGSSEEEEDEESGMEEGDDAEDSQGESEEDRAGDRNSEDDGVVMTFSSVKVSEEVEKGRAVKNQIALWDQLLEGRIKLQKALLTTNQLPQPDVFPLFKDKGGPEFSSALKNSHKALKALLRSLVGLQEELLFQYPDTRYLVDGTKPNAGSEEISSEDDELVEEKKQQRRRVPAKRKLEMEDYPSFMAKRFADFTVYRNRTLQKWHDKTKLASGKLGKGFGAFERSILTQIDHILMDKERLLRRTQTKRSVYRVLGKPEPAAQPVPESLPGEPEILPQAPANAHLKDLDEEIFDDDDFYHQLLRELIERKTSSLDPNDQVAMGRQWLAIQKLRSKIHKKVDRKASKGRKLRFHVLSKLLSFMAPIDHTTMNDDARTELYRSLFGQLHPPDEGHGD
notes: Recombinant human AATF, the analyte in SPR; also called Che-1
For B1, the binding entry is on record as “binds”.
